Results reported in patent US6716964.
Results are given in words; binding and its absence hold for the method and conditions named. Sequences can lack the tags named with a protein.

Target: E1A exon 2 bait
Test: yeast two-hybrid

B1: pGAD#9 prey (GAL4 activation domain fused to the C-terminal 864 residues of CtIP) (protein, not shown: large carriers)
chain: EVQGLQVKVTKLKQERILDAQRLEEFFTKNQQLREQQKVLHETIKVLEDRLRAGLCDRCAVTEEHMRKKQQEFENIRQQNLKLITELMNERNTLQEENKKLSEQLQQKIENDQQHQAAELECEEDVIPDSPITAFSFSGVNRLRRKENPHVRYIEQTHTKLEHSVCANEMRKVSKSSTHPQHNPNENEILVADTYDQSQSPMAKAHGTSSYTPDKSSFNLATVVAETLGLGVQEESETQGPMSPLGDELYHCLEGNHKKQPFEESTRNTEDSLRFSDSTSKTPPQEELPTRVSSPVFGATSSIKSGLDLNTSLSPSLLQPGKKKHLKTLPFSNTCISRLEKTRSKSEDSALFTHHSLGSEVNKIIIQSSNKQILINKNISESLGEQNRTEYGKDSNTDKHLEPLKSLGGRTSKRKKTEEESEHEVSCPQASFDKENAFPFPMDNQFSMNGDCVMDKPLDLSDRFSAIQRQEKSQGSETSKNKFRQVTLYEALKTIPKGFSSSRKASDGNCTLPKDSPGEPCSQECIILQPLNKCSPDNKPSLQIKEENAVFKIPLRPRESLETENVLDDIKSAGSHEPIKIQTRSDHGGCELASVLQLNPCRTGKIKSLQNNQDVSFENIQWSIDPGADLSQYKMDVTVIDTKDGSQSKLGGETVDMDCTLVSETVLLKMKKQEQKGEKSSNEERKMNDSLEDMFDRTTHEEYESCLADSFSQAADEEEELSTATKKLHTHGDKQDKVKQKAFVEPYFKGDERETSLQNFPHIEVVRKKEERRKLLGHTCKECEIYYADMPAEEREKKLASCSRHRFRYIPPNTPENFWEVGFPSTQTCMERGYIKEDLDPCPRPKRRQPYNAIFSPKGKEQKT
  binding: no binding
